No constants are given. Whether binding was seen depends on the method and setting. For some of these results: Binding seen in cells or lysates may run through a third protein. Some entries that bind do so weakly or less than the wild type. Where a sequence is shown, tags or fusion partners need not be part of it.
T1: FLAG-tagged FOXP1 (wild type, full length) (human) (UniProt Q9H334)
T1 sequence: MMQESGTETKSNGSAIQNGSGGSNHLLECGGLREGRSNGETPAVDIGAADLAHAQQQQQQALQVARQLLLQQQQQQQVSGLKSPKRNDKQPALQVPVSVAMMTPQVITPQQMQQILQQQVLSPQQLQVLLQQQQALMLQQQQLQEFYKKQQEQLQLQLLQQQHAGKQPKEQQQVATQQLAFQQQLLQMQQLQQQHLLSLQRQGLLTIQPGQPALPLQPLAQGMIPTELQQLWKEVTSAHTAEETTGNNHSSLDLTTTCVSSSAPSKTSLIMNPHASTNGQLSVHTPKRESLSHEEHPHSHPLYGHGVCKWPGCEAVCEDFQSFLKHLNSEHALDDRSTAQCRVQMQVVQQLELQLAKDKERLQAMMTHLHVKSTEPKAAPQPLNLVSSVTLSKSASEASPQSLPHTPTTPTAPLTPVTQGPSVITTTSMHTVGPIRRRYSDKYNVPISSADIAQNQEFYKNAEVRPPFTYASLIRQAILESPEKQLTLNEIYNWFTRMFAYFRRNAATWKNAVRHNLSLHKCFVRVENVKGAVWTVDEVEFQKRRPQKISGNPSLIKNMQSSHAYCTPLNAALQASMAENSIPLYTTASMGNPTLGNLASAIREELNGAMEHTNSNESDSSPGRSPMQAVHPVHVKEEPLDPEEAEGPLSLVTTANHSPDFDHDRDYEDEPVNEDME

T2: FLAG-tagged FOXP1 S396D (human) (UniProt Q9H334)
T2 sequence: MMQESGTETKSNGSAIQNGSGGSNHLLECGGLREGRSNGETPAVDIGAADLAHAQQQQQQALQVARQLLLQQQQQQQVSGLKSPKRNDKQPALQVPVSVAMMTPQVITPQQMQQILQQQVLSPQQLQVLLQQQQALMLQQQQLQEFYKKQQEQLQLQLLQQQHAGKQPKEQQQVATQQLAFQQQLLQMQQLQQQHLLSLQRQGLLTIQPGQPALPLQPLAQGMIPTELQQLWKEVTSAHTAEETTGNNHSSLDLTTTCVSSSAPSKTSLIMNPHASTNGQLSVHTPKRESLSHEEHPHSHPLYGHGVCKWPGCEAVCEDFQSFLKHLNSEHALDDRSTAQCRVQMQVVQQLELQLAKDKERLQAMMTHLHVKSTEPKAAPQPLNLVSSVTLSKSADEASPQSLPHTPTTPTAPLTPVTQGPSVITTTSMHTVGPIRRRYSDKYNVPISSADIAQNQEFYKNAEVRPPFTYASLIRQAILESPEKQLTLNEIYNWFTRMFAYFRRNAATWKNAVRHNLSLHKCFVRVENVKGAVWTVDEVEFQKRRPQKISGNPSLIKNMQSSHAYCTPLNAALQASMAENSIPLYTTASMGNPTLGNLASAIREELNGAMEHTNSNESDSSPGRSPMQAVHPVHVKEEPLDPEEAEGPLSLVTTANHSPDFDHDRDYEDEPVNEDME

T3: FLAG-tagged FOXP1 Δ465–555 (human) (UniProt Q9H334)
T3 sequence: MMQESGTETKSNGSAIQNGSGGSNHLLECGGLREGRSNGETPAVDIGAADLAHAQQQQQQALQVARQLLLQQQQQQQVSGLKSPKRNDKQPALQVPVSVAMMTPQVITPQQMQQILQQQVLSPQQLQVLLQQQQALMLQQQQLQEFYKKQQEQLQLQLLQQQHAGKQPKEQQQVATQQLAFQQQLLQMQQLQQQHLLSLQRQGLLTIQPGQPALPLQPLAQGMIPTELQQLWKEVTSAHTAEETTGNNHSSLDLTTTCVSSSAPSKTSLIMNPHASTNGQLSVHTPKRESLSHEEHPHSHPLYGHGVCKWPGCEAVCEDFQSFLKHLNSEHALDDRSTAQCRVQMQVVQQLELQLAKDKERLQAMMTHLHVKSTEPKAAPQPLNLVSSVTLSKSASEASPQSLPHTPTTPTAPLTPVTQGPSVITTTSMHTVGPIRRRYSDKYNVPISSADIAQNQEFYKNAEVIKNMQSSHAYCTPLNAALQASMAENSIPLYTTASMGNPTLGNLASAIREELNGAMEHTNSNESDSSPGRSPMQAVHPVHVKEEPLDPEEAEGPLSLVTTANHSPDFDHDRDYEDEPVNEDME

T4: GST-tagged ATRIP (human) (UniProt Q8WXE1)
T4 sequence: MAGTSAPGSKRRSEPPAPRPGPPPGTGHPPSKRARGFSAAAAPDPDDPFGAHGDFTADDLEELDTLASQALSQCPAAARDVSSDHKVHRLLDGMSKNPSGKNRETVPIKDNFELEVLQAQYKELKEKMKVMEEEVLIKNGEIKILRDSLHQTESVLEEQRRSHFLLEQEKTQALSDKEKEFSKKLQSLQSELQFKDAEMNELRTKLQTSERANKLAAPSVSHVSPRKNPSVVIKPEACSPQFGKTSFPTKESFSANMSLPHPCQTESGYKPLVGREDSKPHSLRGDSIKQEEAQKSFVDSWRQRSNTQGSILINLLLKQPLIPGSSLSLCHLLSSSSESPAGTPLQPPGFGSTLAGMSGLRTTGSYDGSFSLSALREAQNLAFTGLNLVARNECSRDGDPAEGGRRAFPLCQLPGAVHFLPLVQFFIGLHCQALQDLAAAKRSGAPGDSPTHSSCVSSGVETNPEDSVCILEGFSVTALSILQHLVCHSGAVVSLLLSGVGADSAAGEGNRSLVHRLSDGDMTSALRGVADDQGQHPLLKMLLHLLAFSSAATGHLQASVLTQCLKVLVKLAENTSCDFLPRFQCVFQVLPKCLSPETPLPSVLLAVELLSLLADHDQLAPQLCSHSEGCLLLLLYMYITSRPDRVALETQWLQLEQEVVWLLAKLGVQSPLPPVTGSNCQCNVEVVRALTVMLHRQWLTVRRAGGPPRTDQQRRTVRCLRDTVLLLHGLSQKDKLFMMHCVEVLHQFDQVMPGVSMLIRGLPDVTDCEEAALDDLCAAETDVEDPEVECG


Assays:
[1] = biological target: T1, FLAG-tagged FOXP1 (wild type, full length) (human); assay: co-IP; HEK293T transfected with the indicated plasmids, lysed in NETN buffer, Anti-FLAG Affinity Gel 4 h at 4 °C, immunoblot; in some panels 2 mM HU, Thiamet-G, OGT siRNA, ATR inhibitors (VE-822, NU6027) or CHK1 inhibitors (Rabusertib, UCN-01)
[2] = biological target: T2, FLAG-tagged FOXP1 S396D (human); assay: as above
[3] = biological target: T3, FLAG-tagged FOXP1 Δ465–555 (human); assay: as above
GST-tagged ATRIP (human) = biological target: T4, GST-tagged ATRIP (human); assay: pull-down; His-tagged FOXP1 incubated with GST-tagged ATRIP, GST pull-down on glutathione beads, immunoblot; both purified

Row | binding [1] | binding [2] | binding [3] | binding (GST-tagged ATRIP (human)) | Binder
1 | binds | binds | binds |  | GFP-tagged OGT (enzyme, UniProt O15294 1-1046) MASSVGNVADSTEPTKRMLSFQGLAELAHREYQAGDFEAAERHCMQLWRQEPDNTGVLLLLSSIHFQCRRLDRSAHFSTLAIKQNPLLAEAYSNLGNVYKERGQLQEAIEHYRHALRLKPDFIDGYINLAAALVAAGDMEGAVQAYVSALQYNPDLYCVRSDLGNLLKALGRLEEAKACYLKAIETQPNFAVAWSNLGCVFNAQGEIWLAIHHFEKAVTLDPNFLDAYINLGNVLKEARIFDRAVAAYLRALSLSPNHAVVHGNLACVYYEQGLIDLAIDTYRRAIELQPHFPDAYCNLANALKEKGSVAEAEDCYNTALRLCPTHADSLNNLANIKREQGNIEEAVRLYRKALEVFPEFAAAHSNLASVLQQQGKLQEALMHYKEAIRISPTFADAYSNMGNTLKEMQDVQGALQCYTRAIQINPAFADAHSNLASIHKDSGNIPEAIASYRTALKLKPDFPDAYCNLAHCLQIVCDWTDYDERMKKLVSIVADQLEKNRLPSVHPHHSMLYPLSHGFRKAIAERHGNLCLDKINVLHKPPYEHPKDLKLSDGRLRVGYVSSDFGNHPTSHLMQSIPGMHNPDKFEVFCYALSPDDGTNFRVKVMAEANHFIDLSQIPCNGKAADRIHQDGIHILVNMNGYTKGARNELFALRPAPIQAMWLGYPGTSGALFMDYIITDQETSPAEVAEQYSEKLAYMPHTFFIGDHANMFPHLKKKAVIDFKSNGHIYDNRIVLNGIDLKAFLDSLPDVKIVKMKCPDGGDNADSSNTALNMPVIPMNTIAEAVIEMINRGQIQITINGFSISNGLATTQINNKAATGEEVPRTIIVTTRSQYGLPEDAIVYCNFNQLYKIDPSTLQMWANILKRVPNSVLWLLRFPAVGEPNIQQYAQNMGLPQNRIIFSPVAPKEEHVRRGQLADVCLDTPLCNGHTTGMDVLWAGTPMVTMPGETLASRVAASQLTCLGCLELIAKNRQEYEDIAVKLGTDLEYLKKVRGKVWKQRISSPLFNTKQYTMELERLYLQMWEHYAAGNKPDHMIKPVEVTESA
2 |  |  |  | binds | His-tagged FOXP1 (protein, UniProt Q9H334 1-677) MMQESGTETKSNGSAIQNGSGGSNHLLECGGLREGRSNGETPAVDIGAADLAHAQQQQQQALQVARQLLLQQQQQQQVSGLKSPKRNDKQPALQVPVSVAMMTPQVITPQQMQQILQQQVLSPQQLQVLLQQQQALMLQQQQLQEFYKKQQEQLQLQLLQQQHAGKQPKEQQQVATQQLAFQQQLLQMQQLQQQHLLSLQRQGLLTIQPGQPALPLQPLAQGMIPTELQQLWKEVTSAHTAEETTGNNHSSLDLTTTCVSSSAPSKTSLIMNPHASTNGQLSVHTPKRESLSHEEHPHSHPLYGHGVCKWPGCEAVCEDFQSFLKHLNSEHALDDRSTAQCRVQMQVVQQLELQLAKDKERLQAMMTHLHVKSTEPKAAPQPLNLVSSVTLSKSASEASPQSLPHTPTTPTAPLTPVTQGPSVITTTSMHTVGPIRRRYSDKYNVPISSADIAQNQEFYKNAEVRPPFTYASLIRQAILESPEKQLTLNEIYNWFTRMFAYFRRNAATWKNAVRHNLSLHKCFVRVENVKGAVWTVDEVEFQKRRPQKISGNPSLIKNMQSSHAYCTPLNAALQASMAENSIPLYTTASMGNPTLGNLASAIREELNGAMEHTNSNESDSSPGRSPMQAVHPVHVKEEPLDPEEAEGPLSLVTTANHSPDFDHDRDYEDEPVNEDME
